Source: US20250084056A1, “SUBSTITUTED OXOISOINDOLINYL PIPERIDINE-2,6-DIONE COMPOUNDS” (BRISTOL-MYERS SQUIBB COMPANY, priority 2023, published 2025)
Some entries share one result that the patent states for a list of compounds.

The chains behind the UniProt entries cited, without tags or fusion partners. Where a name states a change or a piece, a line headed by the entry shows the natural chain unless it says otherwise.
UniProt P24864, whole entry: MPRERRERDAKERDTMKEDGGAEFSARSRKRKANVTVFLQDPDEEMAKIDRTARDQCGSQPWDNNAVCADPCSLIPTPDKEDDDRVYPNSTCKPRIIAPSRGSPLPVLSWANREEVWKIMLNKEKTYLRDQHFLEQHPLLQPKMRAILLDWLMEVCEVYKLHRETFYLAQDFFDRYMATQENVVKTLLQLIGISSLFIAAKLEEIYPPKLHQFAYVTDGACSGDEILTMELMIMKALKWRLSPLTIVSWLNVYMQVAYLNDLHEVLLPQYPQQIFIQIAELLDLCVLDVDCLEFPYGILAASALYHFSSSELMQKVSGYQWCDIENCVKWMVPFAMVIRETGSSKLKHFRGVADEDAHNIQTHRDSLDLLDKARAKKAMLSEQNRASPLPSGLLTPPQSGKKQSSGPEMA
UniProt Q96SW2: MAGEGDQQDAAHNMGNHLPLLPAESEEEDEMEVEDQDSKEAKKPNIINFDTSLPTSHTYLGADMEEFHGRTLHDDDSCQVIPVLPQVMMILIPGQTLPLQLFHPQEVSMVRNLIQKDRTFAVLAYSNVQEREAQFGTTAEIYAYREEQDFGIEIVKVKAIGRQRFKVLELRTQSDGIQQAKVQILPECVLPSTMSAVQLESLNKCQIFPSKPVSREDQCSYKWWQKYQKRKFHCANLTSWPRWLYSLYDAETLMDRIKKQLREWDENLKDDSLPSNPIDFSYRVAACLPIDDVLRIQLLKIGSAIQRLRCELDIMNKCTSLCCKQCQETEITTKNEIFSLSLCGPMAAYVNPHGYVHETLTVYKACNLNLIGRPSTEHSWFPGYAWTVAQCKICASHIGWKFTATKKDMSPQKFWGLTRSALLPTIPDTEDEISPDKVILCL

What follows are molecules tested against Cyclin E1 (Homo sapiens, UniProt P24864+Q96SW2) (assay: Cyclin E1 Cellular Degradation Assay (MSD)). Details: degradation of Cyclin E1 over degradation of GSPT1, Table 18.
Assay type: cell-based
Parameters: endogenous in cells; host or cells: OVCAR3
Procedure: Culturing cells: On Day 0, OVCAR3 cells were plated at 15,000 cells/well in 40 μL of culture medium (RPMI1640, 20% FBS, 0.01 insulin, 1% Anti/Anti) in a 384 well cell culture plate. Cell cultures were incubated for 24 hours at 37° C. and 5% CO2.
Coating MSD plates: On Day 1, rabbit anti-CCNE1 antibody (Abcam ab33911, 1 μg/mL in DPBS, […]) was dispensed to a Meso Scale Discovery plate (MSD L21XA). The MSD plate was spun briefly to ensure the solution coated the bottom of the well and incubated overnight at 4° C. On Day 2, the plate was washed 3 times with TBS +0.2% TWEEN, blocked for 1 hour with 3% MSD Blocker A (MSD R93AA-1, 30 μL/well), then washed again 3 times with TBS+0.2% TWEEN.
Treating and lysing cells: On Day 1, compounds of interest were dispensed into the cell cultures by acoustic dispensing technology. The cell cultures were then spun at 400 g for 4 minutes to disperse the compounds and incubated at 37° C. and 5% CO2 for 24 hours. After incubation, 40 μL of DPBS was added to the cell cultures to dilute the media. All liquid was gently discarded and immediately replaced with 30 μL of lysis buffer (MSD Tris Lysis buffer (MSD R60TX-2), Halt Protease inhibitor (ThermoFisher 78438), Phosphatase Inhibitor II (Sigma-Aldrich P5726), Phosphatase Inhibitor III (Sigma-Aldrich P0044), 0.02M PMSF (Sigma-Aldrich 7626), 0.1% SDS (VWR E719-100ML)). The plate was then sealed, shaken at 300 rpm at room temperature for 5 minutes, and freeze-thawed for optimum cell lysis.
Collecting data: After thawing, 25 μL of lysate was transferred to a coated MSD plate. The plate was then sealed and shaken at 300 rpm overnight in 4° C. On Day 3, the MSD plate was washed 3 times with TBS+0.2% TWEEN. Mouse anti-CCNE1 antibody (Abcam ab238081, 0.5 μg/mL in 1% MSD Blocker A, 10 μL/well) dispensed to the MSD plate, which was then sealed and shaken at room temperature for 3 hours. After the first antibody incubation, the plate was washed 3 times with TBS+0.2% TWEEN, then goat anti-mouse Sulfo-Tag antibody (MSD R32AC, 1 μg/mL in 1% MSD Blocker A, 10 μL/well) was dispensed to the MSD plate. The plate was sealed again and shaken at room temperature for 1 hour, then washed 3 times with TBS+0.2% TWEEN. After the final wash, 35 μL of 1× Read Buffer (MSD R92TC-1) was added to each well and the data was captured using the MSD plate reader. The reference compound, [2-(2,6-dioxopiperidin-3-yl)-4-methoxy-3-oxo-2,3-dihydro-1H-isoindol-5-yl]methyl N-[4-(3,4-difluorophenoxy)phenyl]carbamate, at […] was used to define […]. Assay results for each compound were reported as DC50, the concentration giving 50% response, and Dmax, the maximum response observed with the compound.

selectivity, ratio of GSPT1 DC50/Cyclin E1 DC50, at least 9:
COc1c(COC(=O)Nc2ccc(Cc3cccc(F)c3)cc2F)ccc2c1C(=O)N(C1CCC(=O)NC1=O)C2 (stereo not drawn) [Example 20, [2-(2,6-dioxopiperidin-3-yl)-4-methoxy-3-oxo-2,3-dihydro-1H-isoindol-5-yl]methyl N-{2-fluoro-4-[(3-fluorophenyl)methyl]phenyl}carbamate]
COc1c(COC(=O)Nc2ccc(Cc3ccc(F)c(Cl)c3)cc2)ccc2c1C(=O)N(C1CCC(=O)NC1=O)C2 (stereo not drawn) [Example 21, [2-(2,6-dioxopiperidin-3-yl)-4-methoxy-3-oxo-2,3-dihydro-1H-isoindol-5-yl]methyl N-{4-[(3-chloro-4-fluorophenyl)methyl]phenyl}carbamate]
COc1c(COC(=O)Nc2ccc(Oc3cccc(F)c3F)cc2F)ccc2c1C(=O)N(C1CCC(=O)NC1=O)C2 (stereo not drawn) [Example 22, [2-(2,6-dioxopiperidin-3-yl)-4-methoxy-3-oxo-2,3-dihydro-1H-isoindol-5-yl]methyl N-[4-(2,3-difluorophenoxy)-2-fluorophenyl]carbamate]
COc1c(COC(=O)Nc2ccc(Oc3ccc(F)c(F)c3)cc2F)ccc2c1C(=O)N(C1CCC(=O)NC1=O)C2 (stereo not drawn) [Example 23, [2-(2,6-dioxopiperidin-3-yl)-4-methoxy-3-oxo-2,3-dihydro-1H-isoindol-5-yl]methyl N-[4-(3,4-difluorophenoxy)-2-fluorophenyl]carbamate]
COc1c(COC(=O)Nc2ccc(Oc3cc(F)cc(F)c3)cc2F)ccc2c1C(=O)N(C1CCC(=O)NC1=O)C2 (stereo not drawn) [Example 24, [2-(2,6-dioxopiperidin-3-yl)-4-methoxy-3-oxo-2,3-dihydro-1H-isoindol-5-yl]methyl N-[4-(3,5-difluorophenoxy)-2-fluorophenyl]carbamate]
COc1c(COC(=O)Nc2ccc(Oc3cc(F)c(F)c(F)c3)cc2Cl)ccc2c1C(=O)N(C1CCC(=O)NC1=O)C2 (stereo not drawn) [Example 25, [2-(2,6-dioxopiperidin-3-yl)-4-methoxy-3-oxo-2,3-dihydro-1H-isoindol-5-yl]methyl N-[2-chloro-4-(3,4,5-trifluorophenoxy)phenyl]carbamate]
COc1c(COC(=O)Nc2ccc(Oc3cccc(Cl)c3)cc2F)ccc2c1C(=O)N(C1CCC(=O)NC1=O)C2 (stereo not drawn) [Example 26, [2-(2,6-dioxopiperidin-3-yl)-4-methoxy-3-oxo-2,3-dihydro-1H-isoindol-5-yl]methyl N-[4-(3-chlorophenoxy)-2-fluorophenyl]carbamate]
COc1c(COC(=O)Nc2ccc(Oc3cccc(F)c3)cc2Cl)ccc2c1C(=O)N(C1CCC(=O)NC1=O)C2 (stereo not drawn) [Example 27, [2-(2,6-dioxopiperidin-3-yl)-4-methoxy-3-oxo-2,3-dihydro-1H-isoindol-5-yl]methyl N-[2-chloro-4-(3-fluorophenoxy)phenyl]carbamate]
COc1c(COC(=O)Nc2ccc(Oc3ccc(F)cc3)cc2F)ccc2c1C(=O)N(C1CCC(=O)NC1=O)C2 (stereo not drawn) [Example 28, [2-(2,6-dioxopiperidin-3-yl)-4-methoxy-3-oxo-2,3-dihydro-1H-isoindol-5-yl]methyl N-[2-fluoro-4-(4-fluorophenoxy)phenyl]carbamate]
COc1c(COC(=O)Nc2ccc(C(F)(F)c3ccccc3)cc2)ccc2c1C(=O)N(C1CCC(=O)NC1=O)C2 (stereo not drawn) [Example 29, [2-(2,6-dioxopiperidin-3-yl)-4-methoxy-3-oxo-2,3-dihydro-1H-isoindol-5-yl]methyl N-{4-[difluoro(phenyl)methyl]phenyl}carbamate]
COc1c(COC(=O)Nc2ccc(Oc3ccc(F)cc3F)cc2F)ccc2c1C(=O)N(C1CCC(=O)NC1=O)C2 (stereo not drawn) [Example 30, [2-(2,6-dioxopiperidin-3-yl)-4-methoxy-3-oxo-2,3-dihydro-1H-isoindol-5-yl]methyl N-[4-(2,4-difluorophenoxy)-2-fluorophenyl]carbamate]
COc1ccccc1Oc1ccc(NC(=O)OCc2ccc3c(c2OC)C(=O)N(C2CCC(=O)NC2=O)C3)cc1 (stereo not drawn) [Example 31, [2-(2,6-dioxopiperidin-3-yl)-4-methoxy-3-oxo-2,3-dihydro-1H-isoindol-5-yl]methyl N-[4-(2-methoxyphenoxy)phenyl]carbamate]
COc1cccc(Oc2ccc(NC(=O)OCc3ccc4c(c3OC)C(=O)N(C3CCC(=O)NC3=O)C4)cc2)c1 (stereo not drawn) [Example 32, [2-(2,6-dioxopiperidin-3-yl)-4-methoxy-3-oxo-2,3-dihydro-1H-isoindol-5-yl]methyl N-[4-(3-methoxyphenoxy)phenyl]carbamate]
COc1cc(F)c(F)cc1Oc1ccc(NC(=O)OCc2ccc3c(c2OC)C(=O)N(C2CCC(=O)NC2=O)C3)c(C)c1 (stereo not drawn) [Example 33, [2-(2,6-dioxopiperidin-3-yl)-4-methoxy-3-oxo-2,3-dihydro-1H-isoindol-5-yl]methyl N-[4-(4,5-difluoro-2-methoxyphenoxy)-2-methylphenyl]carbamate]
COc1cc(Oc2cc(F)c(F)cc2F)ccc1NC(=O)OCc1ccc2c(c1OC)C(=O)N(C1CCC(=O)NC1=O)C2 (stereo not drawn) [Example 34, [2-(2,6-dioxopiperidin-3-yl)-4-methoxy-3-oxo-2,3-dihydro-1H-isoindol-5-yl]methyl N-[2-methoxy-4-(2,4,5-trifluorophenoxy)phenyl]carbamate]
COc1cc(Oc2ccc(F)cc2)ccc1NC(=O)OCc1ccc2c(c1OC)C(=O)N(C1CCC(=O)NC1=O)C2 (stereo not drawn) [Example 37, [2-(2,6-dioxopiperidin-3-yl)-4-methoxy-3-oxo-2,3-dihydro-1H-isoindol-5-yl]methyl N-[4-(4-fluorophenoxy)-2-methoxyphenyl]carbamate]
COc1c(COC(=O)Nc2ccc(Oc3ccc(F)c(F)c3)cc2C)ccc2c1C(=O)N(C1CCC(=O)NC1=O)C2 (stereo not drawn) [Example 38, [2-(2,6-dioxopiperidin-3-yl)-4-methoxy-3-oxo-2,3-dihydro-1H-isoindol-5-yl]methyl N-[4-(3,4-difluorophenoxy)-2-methylphenyl]carbamate]
COc1c(COC(=O)Nc2ccc(Oc3cccc(F)c3)cc2C)ccc2c1C(=O)N(C1CCC(=O)NC1=O)C2 (stereo not drawn) [Example 39, [2-(2,6-dioxopiperidin-3-yl)-4-methoxy-3-oxo-2,3-dihydro-1H-isoindol-5-yl]methyl N-[4-(3-fluorophenoxy)-2-methylphenyl]carbamate]
COc1c(COC(=O)Nc2ccc(Oc3cc(F)c(F)c(F)c3)cc2C)ccc2c1C(=O)N(C1CCC(=O)NC1=O)C2 (stereo not drawn) [Example 40, [2-(2,6-dioxopiperidin-3-yl)-4-methoxy-3-oxo-2,3-dihydro-1H-isoindol-5-yl]methyl N-[2-methyl-4-(3,4,5-trifluorophenoxy)phenyl]carbamate]
COc1c(COC(=O)Nc2ccc(C(C)(C)c3ccccc3)cc2)ccc2c1C(=O)N(C1CCC(=O)NC1=O)C2 (stereo not drawn) [Example 41, [2-(2,6-dioxopiperidin-3-yl)-4-methoxy-3-oxo-2,3-dihydro-1H-isoindol-5-yl]methyl N-[4-(2-phenylpropan-2-yl)phenyl]carbamate]
COc1c(COC(=O)Nc2ccc(Oc3ccc(F)cc3F)cc2C)ccc2c1C(=O)N(C1CCC(=O)NC1=O)C2 (stereo not drawn) [Example 42, [2-(2,6-dioxopiperidin-3-yl)-4-methoxy-3-oxo-2,3-dihydro-1H-isoindol-5-yl]methyl N-[4-(2,4-difluorophenoxy)-2-methylphenyl]carbamate]
